## Results of single-concentration screens

By UniProt entry, the sequences of proteins in these tests, tags left out. Residues count along the entry.
UniProt P9WPC5, whole entry: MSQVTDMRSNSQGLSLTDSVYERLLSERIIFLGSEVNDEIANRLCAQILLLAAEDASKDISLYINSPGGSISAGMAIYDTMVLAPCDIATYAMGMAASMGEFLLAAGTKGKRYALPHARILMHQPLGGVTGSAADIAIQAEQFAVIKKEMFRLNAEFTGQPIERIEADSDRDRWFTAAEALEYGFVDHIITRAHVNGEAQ
UniProt P9WPC3, whole entry partner: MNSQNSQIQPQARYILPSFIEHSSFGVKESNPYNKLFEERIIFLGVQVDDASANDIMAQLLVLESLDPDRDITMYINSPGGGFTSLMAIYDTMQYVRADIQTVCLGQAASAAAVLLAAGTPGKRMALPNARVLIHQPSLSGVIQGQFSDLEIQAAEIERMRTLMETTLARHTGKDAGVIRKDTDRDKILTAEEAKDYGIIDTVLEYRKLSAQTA
UniProt P9WFT3, whole entry: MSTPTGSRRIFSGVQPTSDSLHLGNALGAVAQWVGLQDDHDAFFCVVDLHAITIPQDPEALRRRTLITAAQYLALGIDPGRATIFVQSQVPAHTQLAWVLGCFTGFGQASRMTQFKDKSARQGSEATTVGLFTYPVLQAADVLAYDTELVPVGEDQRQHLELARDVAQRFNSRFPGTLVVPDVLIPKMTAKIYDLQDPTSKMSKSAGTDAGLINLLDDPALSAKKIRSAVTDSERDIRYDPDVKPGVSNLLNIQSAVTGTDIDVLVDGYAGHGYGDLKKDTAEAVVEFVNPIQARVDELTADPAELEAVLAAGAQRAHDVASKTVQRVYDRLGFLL
UniProt Q8IDJ8, 1-583: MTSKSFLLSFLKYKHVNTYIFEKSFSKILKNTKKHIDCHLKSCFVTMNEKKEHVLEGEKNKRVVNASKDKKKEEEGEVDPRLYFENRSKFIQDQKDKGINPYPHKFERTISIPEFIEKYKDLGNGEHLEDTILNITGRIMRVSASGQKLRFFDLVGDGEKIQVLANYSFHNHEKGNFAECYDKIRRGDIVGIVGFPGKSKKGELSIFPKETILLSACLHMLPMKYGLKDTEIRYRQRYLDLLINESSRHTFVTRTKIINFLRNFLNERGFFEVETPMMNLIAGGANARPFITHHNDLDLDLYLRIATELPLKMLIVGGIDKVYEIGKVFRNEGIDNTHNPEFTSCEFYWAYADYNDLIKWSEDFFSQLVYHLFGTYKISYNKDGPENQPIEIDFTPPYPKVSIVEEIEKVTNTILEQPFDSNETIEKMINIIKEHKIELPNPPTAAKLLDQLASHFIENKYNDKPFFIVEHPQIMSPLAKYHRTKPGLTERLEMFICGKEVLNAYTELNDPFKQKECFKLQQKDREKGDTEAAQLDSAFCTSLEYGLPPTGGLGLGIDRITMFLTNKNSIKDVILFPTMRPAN

From ChEMBL document CHEMBL3988442, “University of Dundee, Small-Polar-MMV Screening Library” (2021).

ClpP1P2: 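Protease assay of ClpP1P2, read by the AMC dye that it sets free. Target: ClpP1P2, Mycobacterium tuberculosis (UniProt P9WPC5 and UniProt P9WPC3). Tested at 50 µM. Direction is inferred from only a few compounds that gave an IC50; most scored high, so higher reads as stronger inhibition. Most other retested compounds had strongly negative values. Of about 69,000 compounds tested this way, about 10 (0.015%) reached 50% or more in at least one test.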
MtTrpRS: 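Enzyme assay of tryptophanyl-tRNA synthetase; the read-out is not stated. Target: Tryptophan-tRNA ligase, Mycobacterium tuberculosis (UniProt P9WFT3). Compounds at 10 µM. Direction is not recorded; retested compounds ran higher, which suggests that high means inhibition. Size under these conditions: about 65,000 compounds, about 64 of them at 50% or above in at least one test.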
PfKRS1: 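Lysine-tRNA ligase, Plasmodium falciparum 3D7 (UniProt Q8IDJ8). Enzyme assay of the cytosolic lysyl-tRNA synthetase in 384-well plates, read by luminescence. Tested at 30 µM. Direction is inferred from only a few compounds that gave an IC50; most scored high, so higher reads as stronger inhibition. Size under these conditions: about 69,000 compounds, about 49 of them at 50% or above in at least one test.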

Values are the deposited “Percent Effect”, in %.
The record does not define 0% and 100%; most values in the screen are far below 50% and negative numbers occur (in some assays of this library far below -100).
This is an unselected part of the compounds tested.
A dash means the value is not listed here; it may have been measured.

compound	ClpP1P2	MtTrpRS	PfKRS1
CCCN1CCC2(C1)c1ccccc1S(=O)(=O)N2Cc1ccc(F)cc1 (centres undefined)	1.348	-1.281	-0.2857
Cc1ncncc1C(=O)NCCN1CCC(C)CC1	-2.283	5.878	7.811
COC(=O)CC(NC(=O)c1cccc(N2CCCC2=O)c1)c1cccs1 (centres undefined)	3.815	-5.094	0.5438
CCN1C(=O)CCC12CCCN(Cc1ccc(F)cc1)CC2 (centres undefined)	5.305	-2.819	2.808
CCCC(=O)NCCc1cc(N2CCN(C(C)=O)CC2)nc(C2CC2)n1	1.352	-	2.435
COc1ccccc1C1(C(=O)NCCN2CCCCC2)CCOCC1	9.668	73.8	-0.4217
CS(=O)(=O)NC[C@]12COC[C@H]1CN(C(=O)CC1CCCC1)C2	6.848	-	4.065
COc1ccc(CCNC(=O)NCc2cccc(C(N)=O)c2)cc1OC	14.8	-0.1271	3.242
CCCOC1CCCN(C(=O)c2cnc(-c3csc(C)n3)nc2O)C1 (centres undefined)	-13.64	3.543	5.626
COc1c(CNC2CCN(C(=O)C(C)C)CC2)c(C(C)C)nn1C	-26.21	12.84	-1.317
COC(=O)c1cc(NC(=O)CCc2cscn2)ccc1C	-1.714	-4.143	0.3278
CC(NC1(CNC(=O)NC2CC2)CCOCC1)c1ccccc1 (centres undefined)	-12.49	-5.297	-4.465
Cc1cccc(C2(C(=O)NC(C)Cn3ccnc3)CC2)c1 (centres undefined)	-21.65	-4.309	-1.727
Cc1cccc(CC(=O)NC2CCN(C(=O)NC(C)(C)C)CC2)c1	-4.461	6.124	1.374
OCC1(O)CCN(Cc2ccc(-c3cc[nH]n3)s2)CC1	-5.949	-3.466	-3.237
CC(=O)N1CCN([C@@H]2CC[C@@H](NC(=O)c3ccc(C)nc3)[C@H]2O)CC1	-3.38	-	2.668
CN1CC(c2ccccc2)CC12CCN(C(=O)c1ccncc1)CC2 (centres undefined)	-3.007	1.215	7.917
O=C(NCCCC(=O)N1CCN(CC2CC2)c2ccccc21)C1CC1	-4.858	-6.442	5.158
CC(C)c1noc(C2CCCN2C(=O)Cc2cn3ccsc3n2)n1 (centres undefined)	-5.172	-2.694	4.682
Cc1ccc(C(=O)CCC(=O)N2CCC(c3nncn3C)CC2)cc1	4.004	5.516	2.237
c1ccc(N2CCOC(Cc3cccnc3)C2)cc1 (centres undefined)	-7.804	0.7536	1.068
c1cc(-c2noc(-c3cc(C4CC4)[nH]n3)n2)cc(N2CCCCC2)n1	3.353	5.093	2.947
CC(C)c1noc(C(C)N2CCN(Cc3cccs3)CC2)n1 (centres undefined)	4.379	19.27	-2.275
Cn1cc(CN2CCCN(C(=O)c3cc[nH]n3)CC2)cn1	11.83	4.677	2.251
CC(O)CN1CCN(C(=O)c2cnn(-c3ccccc3Cl)c2)CC1 (centres undefined)	-7.392	4.127	3.866
Cn1cc(C(=O)N[C@@H]2CN(Cc3cccs3)[C@@H]3CCCO[C@@H]32)cn1	-8.541	0.3148	3.536
CC(C)(C)c1cc(NC(=O)CN2CCCC2Cn2cncn2)on1 (centres undefined)	7.059	9.185	-0.8556
CCc1nc(CSc2nnc(N)n2C2CC2)no1	-7.869	2.217	3.058
COc1ccc(Br)c(C(=O)NCC2CC2)c1	13.72	12.82	-2.585
CCOCCN1CCN(Cc2nnc(C3CC3)o2)CC1CC (centres undefined)	-19.12	2.067	-3.234
Cc1cn2c(n1)CCC(NC(=O)CCOc1ccccc1F)C2 (centres undefined)	5.404	0.2172	5.764
COC(=O)c1sccc1S(=O)(=O)N1CCC(Oc2cccnn2)CC1	-16.91	-3.493	-0.3362
Cc1cc(C(=O)N2CCCC2)ccc1NCCO	4.747	-8.111	7.407
CC(=O)N1CCCC(c2nnc3n2CCN(C(=O)C2CCCCC2)C3)C1 (centres undefined)	-8.745	-2.35	-1.138
CC(C)OCCSCc1nnc(-c2cccc(F)c2)o1	-8.087	-1.445	0.82
CNC(=O)CC1CC2(CCN(Cc3nccs3)CC2)c2ccccc21 (centres undefined)	7.516	3.002	6.78
Cn1cnc2c(N3CCCC3)nc(C3CCNCC3)cc21	3.617	-1.994	3.37
COc1ccc(C(=O)c2cnc(C(C)C)n2C)cc1	-4.137	-6.068	-5.204
COc1ccc(NC(=O)Cn2nc(C)ccc2=O)cc1OC	1.362	-6.633	0.828
CNc1ncc(CN(C)C(=O)c2cccc(Cn3cccn3)c2)cn1	-9.17	-5.405	2.869
COCC(=O)N1C[C@@H]2CCCO[C@@H]2[C@H](N(C)Cc2ccco2)C1	-1.761	-0.6006	3.931
Cc1nn2c(N3CCCC(C#N)C3)cc(-c3ccccc3)nc2c1C (centres undefined)	-19.81	-0.8081	3.724
Cc1cc(C(=O)Nc2cnn(CC(=O)NC3CCCC3)c2)c(C)s1	-5.038	3.906	10.98
Cc1nn(C)c(N2CCOCC2)c1CNC1CCc2cc(F)ccc21 (centres undefined)	-4.127	-1.247	1.803
CNC(=O)C1CNCCN1C(=O)c1ccc(C(F)(F)F)nc1C (centres undefined)	-22.22	-1.412	0.4254
N#Cc1ccnc(SCC2CN=C(N3CCOCC3)S2)c1 (centres undefined)	-6.173	2.308	1.419
CN(CCc1ccc2c(c1)CCO2)CC1CCS(=O)(=O)C1 (centres undefined)	11.47	-0.7802	4.552
CSCCC(=O)N1CCN(CC(O)C(C)(C)C)CC1 (centres undefined)	-9.126	-1.234	1.224
CN(C)c1cc(CNc2ccc(S(=O)(=O)C(C)(C)C)nc2)ccn1	-7.866	4.947	-2.537
Cc1c(COC(C)C)cccc1NC(=O)N1CCCC(CO)C1 (centres undefined)	-4.211	3.229	5.399
Cc1cc(C)c(N(CC(O)CNCc2ccccc2)S(C)(=O)=O)c(C)c1 (centres undefined)	-4.84	0.3163	-1.086
c1nc(N2CCCCC2Cn2cncn2)c2sccc2n1 (centres undefined)	-4.302	0.6255	4.863
COCCNC(=O)c1cc(C(C)C)nc(N2CCCC2)n1	0.2195	3.756	1.954
Cc1cccc(COCC2c3nnn(C)c3CCN2Cc2ccoc2)n1 (centres undefined)	-12.34	5.383	2.186
CC1CCN(c2ncc3c(n2)CN(c2ccccc2)C3=O)CC1	-12.8	-3.397	2.801
CCc1noc(CS(=O)(=O)CC=C(C)C)n1	-4.136	1.459	3.791
O=C1CCC(c2nc(C3CCN(C(=O)C4CC4)CC3)no2)N1 (centres undefined)	-16.28	-7.668	1.803
CCCN1CCC(CC(=O)NCc2cc(O)ncn2)CC1	-3.811	3.043	4.943
CC(C)S(=O)(=O)C(C)C(=O)NCc1ccccc1OCc1ccccc1 (centres undefined)	4.583	3.613	0.5163
CCOC(=O)CN1CCC(NC(=O)OC(C)(C)C)CC1	-4.07	7.557	0.2785

Repeated from the top, 7 entries:

compound,ClpP1P2,MtTrpRS,PfKRS1
CCCN1CCC2(C1)c1ccccc1S(=O)(=O)N2Cc1ccc(F)cc1 (centres undefined),1.348,-1.281,-0.2857
Cc1ncncc1C(=O)NCCN1CCC(C)CC1,-2.283,5.878,7.811
COC(=O)CC(NC(=O)c1cccc(N2CCCC2=O)c1)c1cccs1 (centres undefined),3.815,-5.094,0.5438
CCN1C(=O)CCC12CCCN(Cc1ccc(F)cc1)CC2 (centres undefined),5.305,-2.819,2.808
CCCC(=O)NCCc1cc(N2CCN(C(C)=O)CC2)nc(C2CC2)n1,1.352,-,2.435
COc1ccccc1C1(C(=O)NCCN2CCCCC2)CCOCC1,9.668,73.8,-0.4217
CS(=O)(=O)NC[C@]12COC[C@H]1CN(C(=O)CC1CCCC1)C2,6.848,-,4.065